Reference: PubChem BioAssay AID504793 (Drosophila RNAi Screening Center, 2011)

- Aim: 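Genes required for cells to halt at G2/M after double-strand DNA breaks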 (primary screen)
- Cell system: Drosophila S2R+ cells
- Reagents: long dsRNA against Drosophila genes, about 0.25 µg dsRNA per well
- Time to read-out: 4 days of dsRNA, then 4 hours of drug before read-out
- Conditions: doxorubicin 0.5 µM for 4 hours to cause double-strand breaks, in cells also given a low, harmless dose of dsRNA against nbs to sensitise the assay
- Measured: 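Mitotic index as the number of phospho-histone H3-positive cells in each well following doxorubicin, given as raw counts without normalisation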
- Scale: mitotic cells: higher = more cells in mitosis, weaker G2 arrest
- Call rule: 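a call needs confirmation in secondary tests, with other dsRNAs and a check of mitotic timing without damage, not just a high primary count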
- Meaning of the calls: active = confirmed in follow-up tests; inactive = not confirmed
The deposit covers about 23,000 reagents; below is an unselected part of those that have a named target and a result. In the full data, 62 (0.27%) are marked active. 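Calls come from follow-up tests whose scores are not deposited, so confirmed genes may have low counts here; counts are not normalised per plate.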 Raw values are not corrected between plates. Names joined by + are all predicted targets of the reagent.

| gene | PubChem SID | mitotic cells, replicate 1 | outcome |
| --- | --- | --- | --- |
| HDAC4 (Histone deacetylase 4) | SID104199572 | 13 | inactive |
| HDAC4 (Histone deacetylase 4) | SID104203783 | 5 | inactive |
| CG17707 | SID104200442 | 6 | inactive |
| CG18537 | SID104186556 | 11 | inactive |
| CG18537 | SID104208391 | 13 | inactive |
| CG32811 | SID104202052 | 12 | inactive |
| CG15373 | SID104199455 | 7 | inactive |
| CG5808 | SID104193916 | 7 | inactive |
| hebe | SID104184984 | 4 | inactive |
| hebe | SID104186397 | 15 | inactive |
| hebe | SID104201314 | 15 | inactive |
| hebe | SID104203236 | 10 | inactive |
| CG4627 | SID104186665 | 6 | inactive |
| retn (retained) | SID104184471 | 5 | inactive |
| retn (retained) | SID104206088 | 12 | inactive |
| CG10011 | SID104193966 | 6 | inactive |
| Gnmt (Glycine N-methyltransferase) | SID104195779 | 2 | inactive |
| trus (toys are us) | SID104195564 | 3 | inactive |
| trus (toys are us) | SID104204066 | 1 | inactive |
| EbpIII (Ejaculatory bulb protein III) | SID104184430 | 8 | inactive |
| CG10286 | SID104192312 | 4 | inactive |
| bru2 (bruno 2) | SID104181038 | 8 | inactive |
| bru2 (bruno 2) | SID104181039 | 4 | inactive |
| bru2 (bruno 2) | SID104181041 | 11 | inactive |
| bru2 (bruno 2) | SID104203549 | 4 | inactive |
| to (takeout) | SID104196878 | 8 | inactive |
| to (takeout) | SID104207619 | 3 | inactive |
| ebi | SID104180608 | 6 | inactive |
| CG32269 + CG32270 | SID104187987 | 8 | inactive |
| Taldo (Transaldolase) | SID104184112 | 7 | inactive |
| Taldo (Transaldolase) | SID104206014 | 3 | inactive |
| wmd (wing morphogenesis defect) | SID104184228 | 4 | inactive |
| wmd (wing morphogenesis defect) | SID104207798 | 4 | inactive |
| spri (sprint) | SID104197776 | 4 | inactive |
| spri (sprint) | SID104197777 | 8 | inactive |
| spri (sprint) | SID104197778 | 10 | inactive |
| spri (sprint) | SID104197781 | 6 | inactive |
| spri (sprint) | SID104202284 | 6 | inactive |
| spri (sprint) | SID104207358 | 6 | inactive |
| Cp110 (Centriolar coiled coil protein 110kDa) | SID104200422 | 4 | inactive |
| Cp110 (Centriolar coiled coil protein 110kDa) | SID104201390 | 8 | inactive |
| CG14628 | SID104198418 | 16 | inactive |
| angel | SID104184462 | 8 | inactive |
| angel | SID104201109 | 13 | inactive |
| Dred (Dctn1-related) | SID104190849 | 3 | inactive |
| Dred (Dctn1-related) | SID104190851 | 9 | inactive |

A run of entries of the results above, for reference:
| gene | PubChem SID | mitotic cells, replicate 1 | outcome |
| --- | --- | --- | --- |
| spri (sprint) | SID104197776 | 4 | inactive |
| spri (sprint) | SID104197777 | 8 | inactive |
| spri (sprint) | SID104197778 | 10 | inactive |
| spri (sprint) | SID104197781 | 6 | inactive |
| spri (sprint) | SID104202284 | 6 | inactive |
| spri (sprint) | SID104207358 | 6 | inactive |
